Measured values published in PMC8517208.
Results are given in words; binding and its absence hold for the method and conditions named. In cells and extracts the contact can be indirect. Some entries that bind do so weakly or less than the wild type. Where a sequence is shown, tags or fusion partners need not be part of it.

Protein sequences, listed by entry. Tags and fused reporters are not part of them.
UniProt P51150: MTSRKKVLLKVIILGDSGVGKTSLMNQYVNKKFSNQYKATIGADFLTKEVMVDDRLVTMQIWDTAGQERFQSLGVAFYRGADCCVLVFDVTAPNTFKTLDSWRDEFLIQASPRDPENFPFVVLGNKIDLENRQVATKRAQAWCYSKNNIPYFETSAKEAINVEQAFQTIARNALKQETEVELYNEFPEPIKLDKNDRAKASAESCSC
UniProt O35129: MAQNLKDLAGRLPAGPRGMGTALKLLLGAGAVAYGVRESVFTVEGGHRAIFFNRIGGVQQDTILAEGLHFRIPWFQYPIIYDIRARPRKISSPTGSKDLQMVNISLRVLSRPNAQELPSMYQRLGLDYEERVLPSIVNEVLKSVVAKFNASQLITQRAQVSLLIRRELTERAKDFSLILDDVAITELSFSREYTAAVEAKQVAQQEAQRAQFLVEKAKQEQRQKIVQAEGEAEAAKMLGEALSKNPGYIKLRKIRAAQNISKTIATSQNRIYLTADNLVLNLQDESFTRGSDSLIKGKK

T1: murine EpCAM in fusion with yellow fluorescent protein (YFP) at the C-terminus, in mF9 cells (murine) (UniProt Q99JW5)
T1 sequence: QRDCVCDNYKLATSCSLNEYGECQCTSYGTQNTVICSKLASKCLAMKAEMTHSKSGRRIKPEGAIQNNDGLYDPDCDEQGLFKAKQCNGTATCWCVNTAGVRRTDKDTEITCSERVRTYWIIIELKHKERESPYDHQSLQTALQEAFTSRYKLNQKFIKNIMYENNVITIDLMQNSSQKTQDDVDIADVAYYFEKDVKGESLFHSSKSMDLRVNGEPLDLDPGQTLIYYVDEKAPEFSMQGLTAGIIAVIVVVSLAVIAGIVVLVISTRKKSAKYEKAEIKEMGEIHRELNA

T2: murine EpCAM in fusion with yellow fluorescent protein (YFP) at the C-terminus, in E14TG2α ESC (murine) (UniProt Q99JW5)
T2 sequence: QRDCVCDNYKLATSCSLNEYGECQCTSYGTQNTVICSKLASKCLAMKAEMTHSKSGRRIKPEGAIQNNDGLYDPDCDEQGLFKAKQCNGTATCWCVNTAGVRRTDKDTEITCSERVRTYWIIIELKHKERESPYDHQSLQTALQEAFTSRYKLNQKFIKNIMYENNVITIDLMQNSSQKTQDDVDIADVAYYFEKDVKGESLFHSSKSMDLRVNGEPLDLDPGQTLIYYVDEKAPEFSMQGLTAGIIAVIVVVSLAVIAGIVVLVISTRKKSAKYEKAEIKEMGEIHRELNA


Tests used:
[1] = molecular target: T1, murine EpCAM in fusion with yellow fluorescent protein (YFP) at the C-terminus, in mF9 cells (murine); assay: co-IP; whole-cell lysates of mF9 cells stably expressing EpCAM-YFP or YFP; 4 mg lysate, GFP-Trap agarose beads; washed with 0.5% tween in TBS; immunoblot of endogenous partners
[2] = molecular target: T2, murine EpCAM in fusion with yellow fluorescent protein (YFP) at the C-terminus, in E14TG2α ESC (murine); assay: co-IP; lysates of E14TG2α ESC stably expressing EpCAM-YFP or YFP; GFP-Trap agarose beads; immunoblot of endogenous partners
[3] = molecular target: T1, murine EpCAM in fusion with yellow fluorescent protein (YFP) at the C-terminus, in mF9 cells (murine); assay: co-IP; co-precipitation in mF9 cells, data not shown; no details told

Molecule	binding [1]	binding [2]	also measured
Ras-related protein Rab-7 (from UniProt P51150 1-207)	binds	–	–
Prohibitin-2 (from UniProt O35129 1-299)	binds	–	–
Prohibitin 2, in E14TG2α ESC (from UniProt O35129 1-299)	–	binds	–
Prohibitin-1 (protein, UniProt P67778 1-272) MAAKVFESIGKFGLALAVAGGVVNSALYNVDAGHRAVIFDRFRGVQDIVVGEGTHFLIPWVQKPIIFDCRSRPRNVPVITGSKDLQNVNITLRILFRPVASQLPRIYTSIGEDYDERVLPSITTEILKSVVARFDAGELITQRELVSRQVSDDLTERAATFGLILDDVSLTHLTFGKEFTEAVEAKQVAQQEAERARFVVEKAEQQKKAAIISAEGDSKAAELIANSLATAGDGLIELRKLEAAEDIAYQLSRSRNITYLPAGQSVLLQLPQ	binds	–	–
Calnexin (protein, UniProt P35564 21-591) HDGHDDDAIDIEDDLDDVIEEVEDSKSKSDASTPPSPKVTYKAPVPTGEVYFADSFDRGSLSGWILSKAKKDDTDDEIAKYDGKWEVDEMKETKLPGDKGLVLMSRAKHHAISAKLNKPFLFDTKPLIVQYEVNFQNGIECGGAYVKLLSKTAELSLDQFHDKTPYTIMFGPDKCGEDYKLHFIFRHKNPKTGVYEEKHAKRPDADLKTYFTDKKTHLYTLILNPDNSFEILVDQSVVNSGNLLNDMTPPVNPSREIEDPEDRKPEDWDERPKIADPDAVKPDDWDEDAPSKIPDEEATKPEGWLDDEPEYIPDPDAEKPEDWDEDMDGEWEAPQIANPKCESAPGCGVWQRPMIDNPNYKGKWKPPMIDNPNYQGIWKPRKIPNPDFFEDLEPFKMTPFSAIGLELWSMTSDIFFDNFIISGDRRVVDDWANDGWGLKKAADGAAEPGVVLQMLEAAEERPWLWVVYILTVALPVFLVILFCCSGKKQSNAMEYKKTDAPQPDVKDEEGKEEEKNKRDEEEEEEKLEEKQKSDAEEDGVTGSQDEEDSKPKAEEDEILNRSPRNRKPRRE	binds	–	–
Prohibitin 1, in E14TG2α ESC (protein, UniProt P67778 1-272) MAAKVFESIGKFGLALAVAGGVVNSALYNVDAGHRAVIFDRFRGVQDIVVGEGTHFLIPWVQKPIIFDCRSRPRNVPVITGSKDLQNVNITLRILFRPVASQLPRIYTSIGEDYDERVLPSITTEILKSVVARFDAGELITQRELVSRQVSDDLTERAATFGLILDDVSLTHLTFGKEFTEAVEAKQVAQQEAERARFVVEKAEQQKKAAIISAEGDSKAAELIANSLATAGDGLIELRKLEAAEDIAYQLSRSRNITYLPAGQSVLLQLPQ	–	binds	–
Calnexin, in E14TG2α ESC (protein, UniProt P35564 21-591) HDGHDDDAIDIEDDLDDVIEEVEDSKSKSDASTPPSPKVTYKAPVPTGEVYFADSFDRGSLSGWILSKAKKDDTDDEIAKYDGKWEVDEMKETKLPGDKGLVLMSRAKHHAISAKLNKPFLFDTKPLIVQYEVNFQNGIECGGAYVKLLSKTAELSLDQFHDKTPYTIMFGPDKCGEDYKLHFIFRHKNPKTGVYEEKHAKRPDADLKTYFTDKKTHLYTLILNPDNSFEILVDQSVVNSGNLLNDMTPPVNPSREIEDPEDRKPEDWDERPKIADPDAVKPDDWDEDAPSKIPDEEATKPEGWLDDEPEYIPDPDAEKPEDWDEDMDGEWEAPQIANPKCESAPGCGVWQRPMIDNPNYKGKWKPPMIDNPNYQGIWKPRKIPNPDFFEDLEPFKMTPFSAIGLELWSMTSDIFFDNFIISGDRRVVDDWANDGWGLKKAADGAAEPGVVLQMLEAAEERPWLWVVYILTVALPVFLVILFCCSGKKQSNAMEYKKTDAPQPDVKDEEGKEEEKNKRDEEEEEEKLEEKQKSDAEEDGVTGSQDEEDSKPKAEEDEILNRSPRNRKPRRE	–	binds	–
Transportin 1 (protein, UniProt Q8BFY9 1-898) MVWDRQTKMEYEWKPDEQGLQQILQLLKESQSPDTTIQRTVQQKLEQLNQYPDFNNYLIFVLTKLKSEDEPTRSLSGLILKNNVKAHFQNFPNGVTDFIKSECLNNIGDSSPLIRATVGILITTIASKGELQNWPDLLPKLCSLLDSEDYNTCEGAFGALQKICEDSAEILDSDVLDRPLNIMIPKFLQFFKHSSPKIRSHAVACVNQFIISRTQALMLHIDSFIENLFALAGDEEAEVRKNVCRALVMLLEVRMDRLLPHMHNIVEYMLQRTQDQDENVALEACEFWLTLAEQPICKDVLVRHLPKLIPVLVNGMKYSDIDIILLKGDVEEDETIPDSEQDIRPRFHRSRTVAQQHEEDGIEEEDDDDDEIDDDDTISDWNLRKCSAAALDVLANVYRDELLPHILPLLKELLFHHEWVVKESGILVLGAIAEGCMQGMIPYLPELIPHLIQCLSDKKALVRSITCWTLSRYAHWVVSQPPDTYLKPLMTELLKRILDSNKRVQEAACSAFATLEEEACTELVPYLAYILDTLVFAFSKYQHKNLLILYDAIGTLADSVGHHLNKPEYIQMLMPPLIQKWNMLKDEDKDLFPLLECLSSVATALQSGFLPYCEPVYQRCVNLVQKTLAQAMLNNAQPEQYEAPDKDFMIVALDLLSGLAEGLGGNIEQLVARSNILTLMYQCMQDKMPEVRQSSFALLGDLTKACFQHVKPCIADFMPILGTNLNPEFISVCNNATWAIGEISIQMGIEMQPYIPMVLHQLVEIINRPNTPKTLLENTAITIGRLGYVCPQEVAPMLQQFIRPWCTSLRNIRDNEEKDSAFRGICTMISVNPSGVIQDFIFFCDAVASWINPKDDLRDMFCKILHGFKNQVGDENWRRFSDQFPLPLKERLAAFYGV	–	–	binding [3]: binds
Exportin-2 (protein, UniProt Q9ERK4 1-971) MELSDANLQTLTEYLKKTLDPDPAIRRPAEKFLESVEGNQNYPLLLLTLLEKSQDNVIKVCASVTFKNYIKRNWRIVEDEPNKICEADRVAIKANIVHLMLSSPEQIQKQLSDAISIIGREDFPQKWPDLLTEMVNRFQSGDFHVINGVLRTAHSLFKRYRHEFKSNELWTEIKLVLDAFALPLTNLFKATIELCSTHANDASALRILFSSLILISKLFYSLNFQDLPEFFEDNMETWMNNFHTLLTLDNKLLQTDDEEEAGLLELLKSQICDNAALYAQKYDEEFQRYLPRFVTAIWNLLVTTGREVKYDLLVSNAIQFLASVCERPHYKNLFEDQNTLTSICEKVIVPNMEFRAADEEAFEDNSEEYIRRDLEGSDIDTRRRAACDLVRGLCKFFEGPVTGIFSGYVNSMLQEYAKNPSVNWKHKDAAIYLVTSLASKAQTQKHGITQANELVNLTEFFVNHILPDLKSNNVNEFPVLKADGIKYIMIFRNQVPKEHLLVSIPLLISHLEAESIVVHTYAAHALERLFTMRGSNNTTLFTAAEIAPFVEILLTNLFKALTLPGSSENEYIMKAIMRSFSLLQEAIIPYIPTLITQLTQKLLAVSKNPSKPHFNHYMFEAICLSIRITCKANPAAVVNFEEALFLVFTEILQNDVQEFIPYVFQVMSLLLETHKNDIPSSYMALFPHLLQPVLWERTGNIPALVRLLQAFLERGSSTIATAAADKIPGLLGVFQKLIASKANDHQGFYLLNSIIEHMPPESVDQYRKQIFILLFQRLQNSKTTKFIKSFLVFINLYCIKYGALALQEIFDGIQPKMFGMVLEKIIIPEIQKVSGNVEKKICAVGITKLLTECPPMMDTEYTKLWTPLLQSLIGLFELPEDDSIPDEEHFIDIEDTPGYQTAFSQLAFAGKKEHDPVGQMVNNPKIHLAQSLHKLSTACPGRVPSMVSTSLNAEALQYLQGYLQAASVTLL	–	–	binding [3]: binds
